In PMC8458281, “Computational modeling and experimental validation of the EPI-X4/CXCR4 complex allows rational design of small peptide antagonists” (Communications Biology, 2021):
Results are given in words; binding and its absence hold for the method and conditions named. Some entries that bind do so weakly or less than the wild type. One block for each binder: values may come before it.

Chains of the proteins cited; added tags and fusions are not shown. Lines headed by an entry give the natural chain unless they say otherwise; changes in a name come on top.
UniProt P61073: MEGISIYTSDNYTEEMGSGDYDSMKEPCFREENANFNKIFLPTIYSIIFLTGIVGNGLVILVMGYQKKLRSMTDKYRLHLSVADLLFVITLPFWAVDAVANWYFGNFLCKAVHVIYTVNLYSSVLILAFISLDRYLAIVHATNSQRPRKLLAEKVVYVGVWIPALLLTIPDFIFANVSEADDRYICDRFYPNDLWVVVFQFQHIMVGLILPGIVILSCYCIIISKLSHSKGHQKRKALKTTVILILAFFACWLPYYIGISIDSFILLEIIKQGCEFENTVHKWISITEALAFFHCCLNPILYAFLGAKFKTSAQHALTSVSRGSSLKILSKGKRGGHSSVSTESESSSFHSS

Assays:
[1] = target: CXCR4 wt (transfected 293T cells) (human) (UniProt P61073); test: flow cytometry on cells; 12G5 antibody competition on 293T cells transiently transfected with CXCR4 wt or mutants (IRES-eGFP vector), eGFP-positive cells gated; serially diluted peptide with a constant concentration of CXCR4 antibody clone 12G5, 2 h; bound antibody read; IC50 by nonlinear …; only the binder purified
CXCR4 D187E (human) = CXCR4 D187E (human) (UniProt P61073); test: as above
CXCR4 D262A (human) = CXCR4 D262A (human) (UniProt P61073); test: as above
[2] = target: C-X-C motif chemokine receptor 4 (CXCR4) on SupT1 cells (human (endogenous in SupT1)) (UniProt P61073); test: flow cytometry on cells; 12G5 antibody competition on SupT1 cells; peptides in PBS with APC-conjugated 12G5 at a concentration close to its EC50, 4 °C, 2 h; MFI normalized to PBS control; IC50 by nonlinear regression; only the binder purified

binding [1]: binds
binding (CXCR4 D187E (human)): binds
binding (CXCR4 D262A (human)): binds
B1: EPI-X4 JM#21 (peptide)
peptide: ILRWSRKLPCVS
notes: source: synthetic peptide (Fmoc solid-phase synthesis, HPLC-purified)

binding [2]: binds
B2: EPI-X4 408–414 (peptide)
peptide: LVRYTKK

binding [1]: binds
binding (CXCR4 D187E (human)): binds
binding (CXCR4 D262A (human)): binds
B3: WSC02 (peptide)
peptide: IVRWSKKVPCVS
notes: also called EPI-X4 WSC02; source: synthetic peptide (Fmoc solid-phase synthesis, HPLC-purified)
